Results are given in words; binding and its absence hold for the method and conditions named. For some assays here: In cells and extracts the contact can be indirect.
Assays:
[1] = biological target: FKBP12.6 (UniProt P68106); assay: SEC; FKBP protein with WDB002 added in excess to CEP250_(11.4), 4 °C overnight; Superdex 200 in 12.5 mM HEPES pH 7.4, 75 mM NaCl; fractions on SDS-PAGE (Fig. S10c); both purified
[2] = biological target: N-terminal AVI-tagged and biotinylated FKBP12 (human) (UniProt P62942); assay: condition: with WDB002; up to 25 µM (key of Fig. S7b); SPR; Biacore S200, 25 °C; ~100 RU biotinylated FKBP12 captured on CAP chip and saturated with WDB002 (ABA injection); CEP250 or HSBP1 protein injected over a concentration range with compound; 10 mM HEPES pH 7.4, 150 mM NaCl, 0.05% Surfactant-P20, 2% DMSO; 1:1 Langmuir fit; both purified
[3] = biological target: FKBP12 as used in the pull-down with the four CEP250 domains (human) (UniProt P62942); assay: pull-down; purified His-tagged CEP250 domains with FKBP12, DMSO or WDB001; blot for FKBP12 (Fig. S2b); both purified
[4] = biological target: N-terminal AVI-tagged and biotinylated FKBP12 (human) (UniProt P62942); assay: pull-down; in vitro pull-down of recombinantly expressed CEP250 domains with FKBP12–WDB001 (SI Appendix, Fig. S2B)
[5] = biological target: N-terminal AVI-tagged and biotinylated FKBP12 (human) (UniProt P62942); assay: SPR; Biacore S200, 25 °C; AVI-FKBP12 immobilised on an NTA sensor chip and saturated with WDB002 in the buffer; CEP250 injected over a concentration range; both purified

Chains of the proteins cited; added tags and fusions are not shown.
UniProt P68106: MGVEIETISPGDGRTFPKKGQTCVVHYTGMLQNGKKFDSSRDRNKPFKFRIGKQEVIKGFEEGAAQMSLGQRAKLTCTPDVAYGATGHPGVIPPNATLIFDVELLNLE

B1: CEP250_(11.4), residues 2134-2231 of human CEP250 (domain or fragment, UniProt Q9BV73 2134-2231)
chain: MEEQSLKLDSLEPRLQRELERLQAALRQTEAREIEWREKAQDLALSLAQTKASVSSLQEVAMFLQASVLERDSEQQRLQDELELTRRALEKERLHSPG
Q: For B1, which binding [1] is on record?
A: The binding was “no binding (tested: with WDB002)”.

B2: CEP250_(29.2) A2194T (domain or fragment, UniProt Q9BV73 1981-2281)
chain: EQHLLEQAELSRSLEASTATLQASLDACQAHSRQLEEALRIQEGEIQDQDLRYQEDVQQLQQALAQRDEELRHQQEREQLLEKSLAQRVQENMIQEKQNLGQEREEEEIRGLHQSVRELQLTLAQKEQEILELRETQQRNNLEALPHSHKTSPMEEQSLKLDSLEPRLQRELERLQAALRQTEAREIEWREKAQDLALSLAQTKASVSSLQEVTMFLQASVLERDSEQQRLQDELELTRRALEKERLHSPGATSTAELGSRGEQGVQLGEVSGVEAEPSPDGMEKQSWRQRLEHLQQAVAR
Q: With B2 as the binder, how does the binding [2] read?
A: The binding was “no binding”.

B3: CEP250 N-terminal domain (amino acids 1-362) (domain or fragment, UniProt Q9BV73 1-362)
chain: METRSPGLNNMKPQSLQLVLEEQVLALQQQMAENQAASWRKLKNSQEAQQRQATLVRKLQAKVLQYRSWCQELEKRLEATGGPIPQRWENVEEPNLDELLVRLEEEQQRCESLAEVNTQLRLHMEKADVVNKALREDVEKLTVDWSRARDELMRKESQWQMEQEFFKGYLKGEHGRLLSLWREVVTFRRHFLEMKSATDRDLMELKAEHVRLSGSLLTCCLRLTVGAQSREPNGSGRMDGREPAQLLLLLAKTQELEKEAHERSQELIQLKSQGDLEKAELQDRVTELSALLTQSQKQNEDYEKMIKALRETVEILETNHTELMEHEASLSRNAQEEKLSLQQVIKDITQVMVEEGDNIAQG
Q: For B3, which binding [3] is on record?
A: The binding was “no binding (tested: with WDB001)”.

B4: CEP250 N-terminal domain (1 to 362) (domain or fragment, UniProt Q9BV73 1-362)
chain: METRSPGLNNMKPQSLQLVLEEQVLALQQQMAENQAASWRKLKNSQEAQQRQATLVRKLQAKVLQYRSWCQELEKRLEATGGPIPQRWENVEEPNLDELLVRLEEEQQRCESLAEVNTQLRLHMEKADVVNKALREDVEKLTVDWSRARDELMRKESQWQMEQEFFKGYLKGEHGRLLSLWREVVTFRRHFLEMKSATDRDLMELKAEHVRLSGSLLTCCLRLTVGAQSREPNGSGRMDGREPAQLLLLLAKTQELEKEAHERSQELIQLKSQGDLEKAELQDRVTELSALLTQSQKQNEDYEKMIKALRETVEILETNHTELMEHEASLSRNAQEEKLSLQQVIKDITQVMVEEGDNIAQG
Q: B4 was tested. Which binding [4] did it give?
A: The binding was “no binding”.

B5: CEP250 intermediate domain I1 (380 to 1,200) (domain or fragment, UniProt Q9BV73 380-1200)
chain: DYQDADKALTLVRSVLTRRRQAVQDLRQQLAGCQEAVNLLQQQHDQWEEEGKALRQRLQKLTGERDTLAGQTVDLQGEVDSLSKERELLQKAREELRQQLEVLEQEAWRLRRVNVELQLQGDSAQGQKEEQQEELHLAVRERERLQEMLMGLEAKQSESLSELITLREALESSHLEGELLRQEQTEVTAALARAEQSIAELSSSENTLKTEVADLRAAAVKLSALNEALALDKVGLNQQLLQLEEENQSVCSRMEAAEQARNALQVDLAEAEKRREALWEKNTHLEAQLQKAEEAGAELQADLRDIQEEKEEIQKKLSESRHQQEAATTQLEQLHQEAKRQEEVLARAVQEKEALVREKAALEVRLQAVERDRQDLAEQLQGLSSAKELLESSLFEAQQQNSVIEVTKGQLEVQIQTVTQAKEVIQGEVRCLKLELDTERSQAEQERDAAARQLAQAEQEGKTALEQQKAAHEKEVNQLREKWEKERSWHQQELAKALESLEREKMELEMRLKEQQTEMEAIQAQREEERTQAESALCQMQLETEKERVSLLETLLQTQKELADASQQLERLRQDMKVQKLKEQETTGILQTQLQEAQRELKEAARQHRDDLAALQEESSSLLQDKMDLQKQVEDLKSQLVAQDDSQRLVEQEVQEKLRETQEYNRIQKELEREKASLTLSLMEKEQRLLVLQEADSIRQQELSALRQDMQEAQGEQKELSAQMELLRQEVKEKEADFLAQEAQLLEELEASHITEQQLRASLWAQEAKAAQLQLRLRSTESQLEALAAEQQPGNQAQAQAQLASLYSALQQALGSVCESR
Q: Which binding [4] does the source give for B5 here?
A: Its binding is “no binding”.

B6: CEP250 intermediate domain I2 (1,219 to 2,124) (domain or fragment, UniProt Q9BV73 1219-2124)
chain: DQNGARSLFKRGPLLTALSAEAVASALHKLHQDLWKTQQTRDVLRDQVQKLEERLTDTEAEKSQVHTELQDLQRQLSQNQEEKSKWEGKQNSLESELMELHETMASLQSRLRRAELQRMEAQGERELLQAAKENLTAQVEHLQAAVVEARAQASAAGILEEDLRTARSALKLKNEEVESERERAQALQEQGELKVAQGKALQENLALLTQTLAEREEEVETLRGQIQELEKQREMQKAALELLSLDLKKRNQEVDLQQEQIQELEKCRSVLEHLPMAVQEREQKLTVQREQIRELEKDRETQRNVLEHQLLELEKKDQMIESQRGQVQDLKKQLVTLECLALELEENHHKMECQQKLIKELEGQRETQRVALTHLTLDLEERSQELQAQSSQIHDLESHSTVLARELQERDQEVKSQREQIEELQRQKEHLTQDLERRDQELMLQKERIQVLEDQRTRQTKILEEDLEQIKLSLRERGRELTTQRQLMQERAEEGKGPSKAQRGSLEHMKLILRDKEKEVECQQEHIHELQELKDQLEQQLQGLHRKVGETSLLLSQREQEIVVLQQQLQEAREQGELKEQSLQSQLDEAQRALAQRDQELEALQQEQQQAQGQEERVKEKADALQGALEQAHMTLKERHGELQDHKEQARRLEEELAVEGRRVQALEEVLGDLRAESREQEKALLALQQQCAEQAQEHEVETRALQDSWLQAQAVLKERDQELEALRAESQSSRHQEEAARARAEALQEALGKAHAALQGKEQHLLEQAELSRSLEASTATLQASLDACQAHSRQLEEALRIQEGEIQDQDLRYQEDVQQLQQALAQRDEELRHQQEREQLLEKSLAQRVQENMIQEKQNLGQEREEEEIRGLHQSVRELQLTLAQKEQEILELRETQQRNNLEA
Q: B6 was tested. Which binding [4] did it give?
A: The binding was “no binding”.

B7: CEP250_(29.2) Ala2194Thr (domain or fragment, UniProt Q9BV73 1981-2281)
chain: EQHLLEQAELSRSLEASTATLQASLDACQAHSRQLEEALRIQEGEIQDQDLRYQEDVQQLQQALAQRDEELRHQQEREQLLEKSLAQRVQENMIQEKQNLGQEREEEEIRGLHQSVRELQLTLAQKEQEILELRETQQRNNLEALPHSHKTSPMEEQSLKLDSLEPRLQRELERLQAALRQTEAREIEWREKAQDLALSLAQTKASVSSLQEVTMFLQASVLERDSEQQRLQDELELTRRALEKERLHSPGATSTAELGSRGEQGVQLGEVSGVEAEPSPDGMEKQSWRQRLEHLQQAVAR
Q: Which binding [5] does the source give for B7 here?
A: Its binding is “no binding”.

B8: CEP250_(29.2) Leu2197Phe (domain or fragment, UniProt Q9BV73 1981-2281)
chain: EQHLLEQAELSRSLEASTATLQASLDACQAHSRQLEEALRIQEGEIQDQDLRYQEDVQQLQQALAQRDEELRHQQEREQLLEKSLAQRVQENMIQEKQNLGQEREEEEIRGLHQSVRELQLTLAQKEQEILELRETQQRNNLEALPHSHKTSPMEEQSLKLDSLEPRLQRELERLQAALRQTEAREIEWREKAQDLALSLAQTKASVSSLQEVAMFFQASVLERDSEQQRLQDELELTRRALEKERLHSPGATSTAELGSRGEQGVQLGEVSGVEAEPSPDGMEKQSWRQRLEHLQQAVAR
Q: For B8, which binding [5] is on record?
A: The binding was “no binding”.

— paper PMC7382241, “Genomic discovery of an evolutionarily programmed modality for small-molecule targeting of an intractable protein surface” (Proceedings of the National Academy of Sciences of the …, 2020)
